No constants are given. Whether binding was seen depends on the method and setting. A result given as binding can be weak or reduced; the word gives no strength. For some assays here: Sequences can lack the tags named with a protein.
Columns and labels:
Experiment in all cases: two-hybrid; Gal4 AD (pGADT7 derivatives, PJ69-4a) and BD (pGBKT7 derivatives, PJ69-4α) fusions in mated diploid S. cerevisiae; growth on SD medium lacking adenine, histidine, leucine and tryptophan/uracil; transactivating constructs pB-pp2Ac1, pB-pro11, pB-Smmob3 and pB-ENT1 omitted
[1] = biological target: T1, PRO22, yeast two-hybrid fusion (Sordaria macrospora) (UniProt F7VWV9)
T1 sequence: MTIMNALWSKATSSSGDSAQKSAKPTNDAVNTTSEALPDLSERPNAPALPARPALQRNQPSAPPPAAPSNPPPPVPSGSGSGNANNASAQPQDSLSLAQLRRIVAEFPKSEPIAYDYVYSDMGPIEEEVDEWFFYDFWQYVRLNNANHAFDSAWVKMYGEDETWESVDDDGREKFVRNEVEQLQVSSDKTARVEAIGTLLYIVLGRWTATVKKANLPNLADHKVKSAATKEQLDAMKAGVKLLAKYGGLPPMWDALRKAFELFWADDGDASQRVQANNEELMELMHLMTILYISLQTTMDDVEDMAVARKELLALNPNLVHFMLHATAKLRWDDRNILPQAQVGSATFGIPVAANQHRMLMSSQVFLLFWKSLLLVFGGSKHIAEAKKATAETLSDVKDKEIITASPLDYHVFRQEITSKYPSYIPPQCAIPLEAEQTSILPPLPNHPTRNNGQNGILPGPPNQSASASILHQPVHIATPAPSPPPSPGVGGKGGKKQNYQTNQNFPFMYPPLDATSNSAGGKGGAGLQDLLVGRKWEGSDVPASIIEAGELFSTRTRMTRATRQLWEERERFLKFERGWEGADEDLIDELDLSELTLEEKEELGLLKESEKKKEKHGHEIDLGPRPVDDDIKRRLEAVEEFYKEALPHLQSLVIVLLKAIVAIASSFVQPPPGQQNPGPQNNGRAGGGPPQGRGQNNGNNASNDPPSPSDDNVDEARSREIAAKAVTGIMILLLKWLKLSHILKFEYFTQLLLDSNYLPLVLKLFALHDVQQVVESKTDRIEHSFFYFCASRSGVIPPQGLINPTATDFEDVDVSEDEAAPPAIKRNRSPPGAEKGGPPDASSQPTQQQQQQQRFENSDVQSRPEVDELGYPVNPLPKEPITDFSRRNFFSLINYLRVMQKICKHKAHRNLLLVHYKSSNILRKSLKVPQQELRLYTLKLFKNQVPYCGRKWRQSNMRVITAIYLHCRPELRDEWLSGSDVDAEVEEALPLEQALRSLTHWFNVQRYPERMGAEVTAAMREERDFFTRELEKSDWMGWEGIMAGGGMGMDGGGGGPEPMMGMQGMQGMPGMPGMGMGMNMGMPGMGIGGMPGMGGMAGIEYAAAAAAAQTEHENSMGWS

Protein sequences, listed by entry. Tags and fused reporters are not part of them. Lines headed by an entry give the natural chain unless they say otherwise; changes in a name come on top.
UniProt F7VLP8: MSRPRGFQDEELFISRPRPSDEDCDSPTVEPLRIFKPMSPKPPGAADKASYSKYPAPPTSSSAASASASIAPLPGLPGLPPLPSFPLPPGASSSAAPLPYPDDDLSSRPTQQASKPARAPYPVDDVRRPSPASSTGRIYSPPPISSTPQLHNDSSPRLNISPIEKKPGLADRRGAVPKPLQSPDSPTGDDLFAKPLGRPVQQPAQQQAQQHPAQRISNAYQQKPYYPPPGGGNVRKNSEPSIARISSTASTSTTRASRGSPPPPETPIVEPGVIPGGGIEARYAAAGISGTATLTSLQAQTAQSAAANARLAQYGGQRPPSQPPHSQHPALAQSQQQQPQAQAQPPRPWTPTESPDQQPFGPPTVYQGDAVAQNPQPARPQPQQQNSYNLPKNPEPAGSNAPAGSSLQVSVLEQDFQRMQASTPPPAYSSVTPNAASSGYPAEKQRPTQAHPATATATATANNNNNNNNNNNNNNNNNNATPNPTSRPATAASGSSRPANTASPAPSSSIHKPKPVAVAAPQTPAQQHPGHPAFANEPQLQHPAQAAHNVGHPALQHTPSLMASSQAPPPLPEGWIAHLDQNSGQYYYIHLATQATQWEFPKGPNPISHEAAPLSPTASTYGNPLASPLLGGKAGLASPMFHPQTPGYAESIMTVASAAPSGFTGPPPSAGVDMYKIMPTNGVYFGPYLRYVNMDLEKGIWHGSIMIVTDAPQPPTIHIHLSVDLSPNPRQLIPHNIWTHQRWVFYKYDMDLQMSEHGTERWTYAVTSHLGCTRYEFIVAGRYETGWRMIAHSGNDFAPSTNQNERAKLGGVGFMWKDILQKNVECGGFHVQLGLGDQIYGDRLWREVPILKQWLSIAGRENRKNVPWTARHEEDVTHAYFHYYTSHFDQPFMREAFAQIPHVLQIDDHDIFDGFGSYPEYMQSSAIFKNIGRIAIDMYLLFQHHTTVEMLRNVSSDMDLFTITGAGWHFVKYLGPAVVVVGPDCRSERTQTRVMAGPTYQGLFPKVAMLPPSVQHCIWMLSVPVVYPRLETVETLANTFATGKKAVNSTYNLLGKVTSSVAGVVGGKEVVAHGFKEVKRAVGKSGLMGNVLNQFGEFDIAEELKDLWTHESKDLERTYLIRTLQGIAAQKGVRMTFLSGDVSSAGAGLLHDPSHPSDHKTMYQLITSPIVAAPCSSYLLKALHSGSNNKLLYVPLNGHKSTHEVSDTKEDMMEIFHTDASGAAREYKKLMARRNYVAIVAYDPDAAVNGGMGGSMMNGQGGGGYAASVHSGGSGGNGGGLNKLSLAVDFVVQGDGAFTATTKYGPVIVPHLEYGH
UniProt F7VVV0: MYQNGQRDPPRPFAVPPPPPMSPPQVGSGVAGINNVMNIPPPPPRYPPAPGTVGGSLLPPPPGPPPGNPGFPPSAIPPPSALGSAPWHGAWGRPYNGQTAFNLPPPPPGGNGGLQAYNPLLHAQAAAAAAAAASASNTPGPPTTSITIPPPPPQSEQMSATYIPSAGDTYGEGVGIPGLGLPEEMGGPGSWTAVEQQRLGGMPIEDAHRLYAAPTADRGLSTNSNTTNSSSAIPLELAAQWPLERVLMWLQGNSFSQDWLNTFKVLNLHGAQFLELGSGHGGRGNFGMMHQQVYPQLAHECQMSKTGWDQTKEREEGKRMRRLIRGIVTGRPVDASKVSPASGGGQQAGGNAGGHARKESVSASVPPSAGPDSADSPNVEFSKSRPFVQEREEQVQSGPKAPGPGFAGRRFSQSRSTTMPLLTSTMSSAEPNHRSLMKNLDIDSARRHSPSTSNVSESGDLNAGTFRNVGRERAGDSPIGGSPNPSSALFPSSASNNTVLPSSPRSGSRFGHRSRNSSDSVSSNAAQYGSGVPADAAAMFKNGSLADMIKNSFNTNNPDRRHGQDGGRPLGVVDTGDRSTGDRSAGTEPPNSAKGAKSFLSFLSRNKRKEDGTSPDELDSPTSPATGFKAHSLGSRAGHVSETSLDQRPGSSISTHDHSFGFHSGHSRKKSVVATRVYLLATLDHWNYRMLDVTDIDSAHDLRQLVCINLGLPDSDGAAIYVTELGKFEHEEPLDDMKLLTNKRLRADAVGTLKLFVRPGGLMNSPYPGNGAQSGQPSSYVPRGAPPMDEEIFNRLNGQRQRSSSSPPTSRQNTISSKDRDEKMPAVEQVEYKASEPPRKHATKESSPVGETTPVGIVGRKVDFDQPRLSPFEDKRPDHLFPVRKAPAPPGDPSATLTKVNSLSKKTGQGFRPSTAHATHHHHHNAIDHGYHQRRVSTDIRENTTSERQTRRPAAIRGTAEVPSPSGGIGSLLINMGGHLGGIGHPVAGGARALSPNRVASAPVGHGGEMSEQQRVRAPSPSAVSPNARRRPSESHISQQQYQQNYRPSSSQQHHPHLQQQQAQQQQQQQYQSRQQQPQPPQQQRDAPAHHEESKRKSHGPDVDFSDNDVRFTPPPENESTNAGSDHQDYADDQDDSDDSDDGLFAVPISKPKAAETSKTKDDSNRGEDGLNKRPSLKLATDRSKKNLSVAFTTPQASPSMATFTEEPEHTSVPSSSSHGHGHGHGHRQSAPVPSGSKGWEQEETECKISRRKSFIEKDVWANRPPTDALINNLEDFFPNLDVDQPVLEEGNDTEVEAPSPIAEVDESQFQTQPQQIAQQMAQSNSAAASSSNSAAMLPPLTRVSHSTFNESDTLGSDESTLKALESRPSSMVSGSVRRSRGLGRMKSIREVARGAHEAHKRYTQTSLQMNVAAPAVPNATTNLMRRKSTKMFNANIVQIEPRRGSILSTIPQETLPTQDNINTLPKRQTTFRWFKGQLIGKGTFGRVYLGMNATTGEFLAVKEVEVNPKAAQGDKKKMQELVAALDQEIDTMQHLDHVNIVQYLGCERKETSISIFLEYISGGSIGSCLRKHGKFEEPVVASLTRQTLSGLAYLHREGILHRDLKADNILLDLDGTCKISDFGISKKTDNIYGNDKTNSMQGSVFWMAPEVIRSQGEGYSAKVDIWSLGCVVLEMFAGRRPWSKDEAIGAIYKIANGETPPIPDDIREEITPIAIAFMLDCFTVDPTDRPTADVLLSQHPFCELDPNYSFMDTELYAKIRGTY
UniProt F7W245: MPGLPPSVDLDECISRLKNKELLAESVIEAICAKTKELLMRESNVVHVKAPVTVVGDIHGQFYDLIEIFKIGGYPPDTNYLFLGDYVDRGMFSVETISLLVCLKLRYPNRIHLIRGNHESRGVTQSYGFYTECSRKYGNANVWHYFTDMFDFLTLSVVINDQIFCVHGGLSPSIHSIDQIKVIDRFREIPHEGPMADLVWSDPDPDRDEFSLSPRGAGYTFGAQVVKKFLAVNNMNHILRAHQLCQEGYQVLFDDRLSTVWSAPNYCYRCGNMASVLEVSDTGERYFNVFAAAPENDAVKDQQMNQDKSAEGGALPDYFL

[2] = biological target: T2, PP2AA, yeast two-hybrid fusion (Sordaria macrospora) (UniProt F7VS87)
T2 sequence: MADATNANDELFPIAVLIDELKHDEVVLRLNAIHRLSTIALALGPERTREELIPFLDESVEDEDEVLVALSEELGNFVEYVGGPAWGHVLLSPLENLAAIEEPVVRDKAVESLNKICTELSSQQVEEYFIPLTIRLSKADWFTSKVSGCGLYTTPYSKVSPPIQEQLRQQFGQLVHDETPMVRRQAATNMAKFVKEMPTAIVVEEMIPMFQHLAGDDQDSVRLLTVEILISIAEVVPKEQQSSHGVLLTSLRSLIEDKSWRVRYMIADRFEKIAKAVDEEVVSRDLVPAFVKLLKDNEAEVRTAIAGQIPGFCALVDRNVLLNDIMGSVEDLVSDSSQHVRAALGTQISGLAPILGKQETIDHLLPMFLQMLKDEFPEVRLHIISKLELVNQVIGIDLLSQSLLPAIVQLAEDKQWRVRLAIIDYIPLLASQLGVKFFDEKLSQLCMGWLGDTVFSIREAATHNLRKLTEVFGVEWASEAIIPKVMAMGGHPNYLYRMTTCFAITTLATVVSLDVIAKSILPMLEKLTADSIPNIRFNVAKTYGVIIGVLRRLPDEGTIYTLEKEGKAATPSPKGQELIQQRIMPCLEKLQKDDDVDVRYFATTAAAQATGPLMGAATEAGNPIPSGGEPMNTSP

[3] = biological target: PRO22-PxxP (full-length PRO22 with a mutation in the PxxP motif), yeast two-hybrid fusion (Sordaria macrospora) (UniProt F7VWV9)
[4] = biological target: T3, PTPA1, yeast two-hybrid fusion (Sordaria macrospora) (UniProt F7VW68)
T3 sequence: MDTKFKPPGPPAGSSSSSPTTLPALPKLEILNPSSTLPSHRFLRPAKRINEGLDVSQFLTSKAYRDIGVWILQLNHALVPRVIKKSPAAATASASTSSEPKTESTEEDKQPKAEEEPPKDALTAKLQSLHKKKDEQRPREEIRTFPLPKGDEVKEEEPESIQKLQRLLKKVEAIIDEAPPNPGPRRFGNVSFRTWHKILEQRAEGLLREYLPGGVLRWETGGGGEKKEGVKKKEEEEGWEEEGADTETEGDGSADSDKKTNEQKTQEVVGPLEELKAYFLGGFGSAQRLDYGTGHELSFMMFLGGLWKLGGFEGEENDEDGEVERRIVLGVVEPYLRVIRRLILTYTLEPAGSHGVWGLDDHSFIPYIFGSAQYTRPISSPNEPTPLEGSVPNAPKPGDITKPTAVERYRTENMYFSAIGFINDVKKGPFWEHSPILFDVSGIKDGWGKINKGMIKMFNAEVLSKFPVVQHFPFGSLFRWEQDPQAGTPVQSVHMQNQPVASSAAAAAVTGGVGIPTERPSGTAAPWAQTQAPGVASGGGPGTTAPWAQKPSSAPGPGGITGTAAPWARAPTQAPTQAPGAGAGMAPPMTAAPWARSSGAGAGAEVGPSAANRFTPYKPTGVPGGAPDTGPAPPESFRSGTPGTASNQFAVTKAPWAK

[5] = biological target: PRO40, yeast two-hybrid fusion (Sordaria macrospora) (UniProt F7VLP8)
[6] = biological target: MAPK kinase kinase MIK1, yeast two-hybrid fusion (Sordaria macrospora) (UniProt F7VVV0)
[7] = biological target: T4, TAP42, yeast two-hybrid fusion (Sordaria macrospora) (UniProt F7VNJ5)
T4 sequence: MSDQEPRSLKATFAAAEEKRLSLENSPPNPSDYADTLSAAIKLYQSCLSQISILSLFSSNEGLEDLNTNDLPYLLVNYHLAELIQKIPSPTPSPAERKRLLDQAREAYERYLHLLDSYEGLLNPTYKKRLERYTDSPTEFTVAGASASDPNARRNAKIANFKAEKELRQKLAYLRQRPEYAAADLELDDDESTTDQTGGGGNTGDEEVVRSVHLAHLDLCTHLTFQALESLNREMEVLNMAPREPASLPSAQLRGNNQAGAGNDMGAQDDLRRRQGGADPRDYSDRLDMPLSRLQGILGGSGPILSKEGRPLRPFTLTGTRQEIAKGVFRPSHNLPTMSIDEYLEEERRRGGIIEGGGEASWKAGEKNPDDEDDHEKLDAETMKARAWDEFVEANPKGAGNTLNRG

Measured: binding

PP2Ac1, yeast two-hybrid fusion (Gal4 activation domain) (from UniProt F7W245) (enzyme)
binds: all assays above

PRO40, yeast two-hybrid fusion (from UniProt F7VLP8)
binds: [2]

Source: PMC4916389
